The text below walks through data of article doi:10.1101/2022.09.21.508831.

Results are given in words; binding and its absence hold for the method and conditions named. Binding calls can cover weak binding; strength is not graded here.

Assay [1] addresses native PfRAP070 (Plasmodium falciparum 3D7 (endogenous in merozoites)) (UniProt Q8IAY8). Nature of the assay: native gel or EMSA.
Assay [2] addresses native PfRAP291 (Plasmodium falciparum 3D7 (endogenous in merozoites)) (UniProt Q8IJA7). Nature of the assay: native gel or EMSA.

B1: RhopH3 (endogenous, merozoite) (protein, UniProt Q8I395 25-897)
chain: KDVFAGFVTKKLKTLLDCNFALYYNFKGNGPDAGSFLDFVDEPEQFYWFVEHFLSVKFRVPKHLKDKNIHNFTPCLNRSWVSEFLKEYEEPFVNPVMKFLDKEQRLFFTYNFGDVEPQGKYTYFPVKEFHKYCILPPLIKTNIKDGESGEFLKYQLNKEEYKVFLSSVGSQMTAIKNLYSTVEDEQRKQLLKVIIENESTNDISVQCPTYNIKLHYTKECANSNNILKCIDEFLRKTCEKKTESKHPSADLCEHLQFLFESLKNPYLDNFKKFMTNSDFTLIKPQSVWNVPIFDIYKPKNYLDSVQNLDTECFKKLNSKNLIFLSFHDDIPNNPYYNVELQEIVKLSTYTYSIFDKLYNFFFVFKKSGAPISPVSVKELSHNITDFSFKEDNSEIQCQNVRKSLDLEVDVETMKGIAAEKLCKIIEKFILTKDDASKPEKSDIHRGFRILCILISTHVEAYNIVRQLLNMESMISLTRYTSLYIHKFFKSVTLLKGNFLYKNNKAIRYSRACSKASLHVPSVLYRRNIYIPETFLSLYLGLSNLVSSNPSSPFFEYAIIEFLVTYYNKGSEKFVLYFISIISVLYINEYYYEQLSCFYPKEFELIKSRMIHPNIVDRILKGIDNLMKSTRYDKMRTMYLDFESSDIFSREKVFTALYNFDSFIKTNEQLKKKNLEEISEIPVQLETSNDGIGYRKQDVLYETDKPQTMDEASYEETVDEDAHHVNEKQHSAHFLDAIAEKDILEEKTKDQDLEIELYKYMGPLKEQSKSTSAASTSDEISGSEGPSTESTSTGNQGEDKTTDNTYKEMEELEEAEGTSNLKKGLEFYKSSLKLDQLDKEKPKKKKSKRKKKRDSSSDRILLEESKTFTSENEL
Consider B1, for which the binding entry in assay [1] and in assay [2] was “binds” throughout.
